Laboratory results: patent publication US20230287138A1 (Regneron Pharmaceuticals, Inc., priority 2022, published 2023)

Assay: general procedure: solution-phase peptide synthesis; HATU/DIPEA
Conditions: TFA salt; for step yield: late stage modification step

“2-(2-{2-[2-(Cyclooct-2-yn-1-yloxy)acetamido]acetamido}acetamido)-N-({[(10S,23S)-10-ethyl-18-fluoro-10-hydroxy-19-methyl-5,9-dioxo-8-oxa-4,15-diazahexacyclo[14.7.1.0^2,^14.0^4,^13.0^6,^11.0^20,^24]tetracosa-1,6(11),12,14,16,18,20(24)-heptaen-23-yl]carbamoyl}methyl)acetamide” showed a conjugation yield (conjugation step) of 39%.
Substance “2-[2-(2-{2-[2-(Cyclooct-2-yn-1-yloxy)acetamido]acetamido} acetamido)acetamido]acetic acid” has a step yield of 15%.
In the case of “(2S)-2-(2-{2-[2-(Cyclooct-2-yn-1-yloxy)acetamido]acetamido}acetamido)-N-[({[(19S)-19-ethyl-19-hydroxy-7-methoxy-14,18-dioxo-17-oxa-3,13-diazapentacyclo[11.8.0.0^2,^11.0^4,^9.0^15,^20]henicosa-1(21),2,4,6,8,10,15(20)-heptaen-10-yl]methyl}carbamoyl)methyl]-3-phenylpropanamide”, the step yield is reported as 5%.
With “(2S)-2-[2-(2-Aminoacetamido)acetamido]-N-[({[(19S)-19-ethyl-19-hydroxy-7-methoxy-14,18-dioxo-17-oxa-3,13-diazapentacyclo[11.8.0.0^2,^11.0^4,^9.0^15,^20]henicosa-1(21),2,4,6,8,10,15(20)-heptaen-10-yl]methyl}carbamoyl)methyl]-3-phenylpropanamide” the “crude LC-MS purity” value (coupling step, LCMS) was 68% purity in LCMS.
